Data reported in patent US20060275806.
For at least one entry, the source does not settle the construct or the ends of the probe. Negatives hold for the conditions tested.

System: NheI restriction endonuclease
Assay: enzyme reaction in vitro
Details: 5mC in AGCT (AluI methylase); cleavage blocked by AluI methylation; optical mapping; purified recombinant protein

Sequence: AGCTAGC (double strand) [E. coli genomic DNA, AluI-methylated NheI site]
- activity on this sequence: not active
